# Source: patent US20250027127A1, “C[…] BACTERIA” (priority 2021, published 2025)
# B1: Tcz9: berberine bridge enzyme-like (BBE-like) oxidase from Actinomycete sp. AJS-327, SEQ ID NO: 1 (protein)
# chain: MATPSAFSGSVLTPGDDGFEAAQVTWNACYSSRPREVMVCHDAASVAEAVRSVRERGLPFRVRSGGHSMCGLSNLDDGVIIDLGGLGGVELTPDRQTVRIGGGARLADVYNTLWDHRLTVPAGTCPRIGVGGHVLGGGMGVLSRSRGALVDHLTALEMVDAEGRLLRVSEDENPDLFWACRGGGGGNFGIVTAYELRPTPIDDVTIFTVSWTWSQLPDAVRAWQRWLGSAESRINSFLSLFPQQQDMVVAFGVFDGPAADFRPLLAPLTAEVAPEAEVVEEVPFIQAVDTVEALQGEAAAAEQVRAQGSSAIIANPLNDEALATLQEFLTDPPSHRAEVAVYGMGGVIGERERGDTAFVHRTGLMAFEYRTDWDSPEDDRLNLDWVTRLRHAMAEHTTGAAYVNTIDLALENWLWAYYEENLPRLMAVKRRYDPENVFHHPHSIPGSLTAEAARAHGVPEATLKRLHDDGLLDGPLD
# Assay: Temperature and solvent effects on Tcz9 activity
# Format: biochemical
molecule,measurement,setting,value
B1,DMSO withstood before activity is significantly affected,"55° C., 8 hours, compound 9",> 20 % DMSO
same,temperature at which production of compound 11 significantly increased,"compared to 25° C., crude cell lysate, compound 9, pH 7.5, 8 hours",55-70 °C
